{
  "source": "patent US4520022A",
  "about": "“Substituted vinyl cephalosporins” (priority 1983, dated 1985)",
  "experiment": "in vivo",
  "conditions": "mouse, blood",
  "data": [
    {"smiles": "CC1=C(C(=O)O)N2C(=O)[C@@H](NC(=O)[C@H](N)c3ccccc3)[C@H]2SC1", "note": "[Cephalexin]", "values": [
      {"measurement": "AUC", "setting": "im, 20 mg/kg, AUC*, Run 1, * mean of 3 runs", "result": 16000, "unit": "ng·h/mL"},
      {"measurement": "Cmax", "setting": "im, 20 mg/kg, 20 mg/kg, i.m., Run 1 (Cephalexin: * mean of 3 runs)", "result": 26000, "unit": "ng/mL"},
      {"measurement": "AUC", "setting": "po, 20 mg/kg, AUC*, Run 1, * mean of 3 runs", "result": 14000, "unit": "ng·h/mL"},
      {"measurement": "Cmax", "setting": "po, 20 mg/kg, 20 mg/kg, p.o., Run 1 (Cephalexin: * mean of 3 runs)", "result": 11000, "unit": "ng/mL"},
      {"measurement": "AUC", "setting": "po, 100 mg/kg, AUC, 100 mg/kg, p.o., Run 1 (Cephalexin: * mean of 3 runs)", "result": 57000, "unit": "ng·h/mL"},
      {"measurement": "Cmax", "setting": "po, 100 mg/kg, 100 mg/kg, p.o., Run 1 (Cephalexin: * mean of 3 runs)", "result": 47000, "unit": "ng/mL"}
    ]}
  ]
}
